# Where “and” joins values, the source holds several entries; their conditions need not be identical. Identical values can stand only once. The list shows a part of the results.
# How the values were obtained:
# Experiment in all cases: protein microarray (ProtoArray v5.0), streptavidin-Alexa Fluor 647
# Details in all cases: 3'-biotin; 20 mM Tris (pH 7.5), 5 mM MgCl2, 100 mM KCl, 0.1% Tween-20, A/T-rich and random oligonucleotide blockers; temperature not stated; high values mean tight binding
# FLT3LG (human) = test system: FLT3LG (human)
# FOXP1 (human) = test system: FOXP1 (human)
# FREQ (human) = test system: FREQ (human)
# FRMD8 (human) = test system: FRMD8 (human)
# FRS3 (human) = test system: FRS3 (human)
# FTL (human) = test system: FTL (human)
# FUNDC2 (human) = test system: FUNDC2 (human)
# FXC1 (human) = test system: FXC1 (human)
# FXYD1 (human) = test system: FXYD1 (human)
# FYCO1 (human) = test system: FYCO1 (human)
# [1] = test system: FYVE, RhoGEF and PH domain-containing protein 2 (human)
# [2] = test system: Ferritin heavy chain (human)
# [3] = test system: G protein-coupled receptor kinase 6 (human)
# [4] = test system: G1/S-specific cyclin-D1 (human)
# G6PC (human) = test system: G6PC (human)
# [5] = test system: GA-binding protein subunit beta-1 (human)
# GABPA (human) = test system: GABPA (human)
# GABPB2 (human) = test system: GABPB2 (human)
# GAMT (human) = test system: GAMT (human)
# GAP43 (human) = test system: GAP43 (human)
sequence,measurement,setting,value
GGTGACAGGGGTATGGGGAGGGG [G4-2 biotinylated (Ct1)],binding signal,FLT3LG (human),-0.38 z-score
same,binding signal,FOXP1 (human),-0.394 z-score
same,binding signal,FREQ (human),-0.395 z-score
same,binding signal,FRMD8 (human),-0.373 z-score
same,binding signal,FRS3 (human),-0.392 z-score
same,binding signal,FTL (human),-0.39 z-score
same,binding signal,FUNDC2 (human),-0.392 z-score
same,binding signal,FXC1 (human),-0.389 z-score
same,binding signal,FXYD1 (human),-0.379 z-score
same,binding signal,FYCO1 (human),-0.374 z-score
same,binding signal,[1],-0.392 z-score
same,binding signal,[2],-0.384 z-score
same,binding signal,[3],5.15 z-score
same,binding signal,[4],-0.39 z-score
same,binding signal,G6PC (human),-0.385 z-score
same,binding signal,[5],-0.388 z-score
same,binding signal,GABPA (human),-0.394 z-score
same,binding signal,GABPB2 (human),-0.39 z-score and -0.403 z-score
same,binding signal,GAMT (human),-0.375 z-score
same,binding signal,GAP43 (human),-0.392 z-score
